Assay results from US12729225B2, “Non-canonical SWI/SNF complex and uses thereof” (Dana-Farber Cancer Institute, Inc., priority 2018, dated 2026).

Test system: mSWI/SNF complexes
Assay: mSWI/SNF complex purification with HA-tagged baits and mass spectrometry (peptide counts)
Parameters: species or system human
[1] = 293_HA-BRD7: HA-BRD7 bait purification, total peptide count per co-purified protein
[2] = 293_HA-BRD7: HA-BRD7 bait purification, unique peptide count per co-purified protein
[3] = 293_HA-DPF2 purification, total peptides
[4] = 293_HA-DPF2 purification, unique peptides

Molecule	Total [1]	Unique [2]	Total [3]	Unique [4]
PTPLAD1 (protein, UniProt Q9P035 1-362, looked up) Very-long-chain …: MENQVLTPHVYWAQRHRELYLRVELSDVQNPAISITENVLHFKAQGHGAKGDNVYEFHLEFLDLVKPEPVYKLTQRQVNITVQKKVSQWWERLTKQEKRPLFLAPDFDRWLDESDAEMELRAKEEERLNKLRLESEGSPETLTNLRKGYLFMYNLVQFLGFSWIFVNLTVRFCILGKESFYDTFHTVADMMYFCQMLAVVETINAAIGVTTSPVLPSLIQLLGRNFILFIIFGTMEEMQNKAVVFFVFYLWSAIEIFRYSFYMLTCIDMDWKVLTWLRYTLWIPLYPLGCLAEAVSVIQSIPIFNETGRFSFTLPYPVKIKVRFSFFLQIYLIMIFLGLYINFRHLYKQRRRRYGQKKKKIH	8	7		
ATP5C1 (protein, UniProt P36542 26-298, looked up) ATP synthase F(1) complex …: ATLKDITRRLKSIKNIQKITKSMKMVAAAKYARAERELKPARIYGLGSLALYEKADIKGPEDKKKHLLIGVSSDRGLCGAIHSSIAKQMKSEVATLTAAGKEVMLVGIGDKIRGILYRTHSDQFLVAFKEVGRKPPTFGDASVIALELLNSGYEFDEGSIIFNKFRSVISYKTEEKPIFSLNTVASADSMSIYDDIDADVLQNYQEYNLANIIYYSLKESTTSEQSARMTAMDNASKNASEMIDKLTLTFNRTRQAVITKELIEIISGAAALD	7	7	1	1
KRT14 (protein, UniProt P02533 1-472, looked up) Keratin, type I cytoskeletal …: MTTCSRQFTSSSSMKGSCGIGGGIGGGSSRISSVLAGGSCRAPSTYGGGLSVSSSRFSSGGACGLGGGYGGGFSSSSSSFGSGFGGGYGGGLGAGLGGGFGGGFAGGDGLLVGSEKVTMQNLNDRLASYLDKVRALEEANADLEVKIRDWYQRQRPAEIKDYSPYFKTIEDLRNKILTATVDNANVLLQIDNARLAADDFRTKYETELNLRMSVEADINGLRRVLDELTLARADLEMQIESLKEELAYLKKNHEEEMNALRGQVGGDVNVEMDAAPGVDLSRILNEMRDQYEKMAEKNRKDAEEWFFTKTEELNREVATNSELVQSGKSEISELRRTMQNLEIELQSQLSMKASLENSLEETKGRYCMQLAQIQEMIGSVEEQLAQLRCEMEQQNQEYKILLDVKTRLEQEIATYRRLLEGEDAHLSSSQFSSGSQSSRDVTSSSRQIRTKVMDVHDGKVVSTHEQVLRTKN	7	7		
FBL (protein, UniProt P22087 1-321, looked up) rRNA 2'-O-methyltransferase …: MKPGFSPRGGGFGGRGGFGDRGGRGGRGGFGGGRGRGGGFRGRGRGGGGGGGGGGGGGRGGGGFHSGGNRGRGRGGKRGNQSGKNVMVEPHRHEGVFICRGKEDALVTKNLVPGESVYGEKRVSISEGDDKIEYRAWNPFRSKLAAAILGGVDQIHIKPGAKVLYLGAASGTTVSHVSDIVGPDGLVYAVEFSHRSGRDLINLAKKRTNIIPVIEDARHPHKYRMLIAMVDVIFADVAQPDQTRIVALNAHTFLRNGGHFVISIKANCIDSTASAEAVFASEVKKMQQENMKPQEQLTLEPYERDHAVVVGVYRPPPKVKN	7	7		
DDX46 (protein, UniProt Q7L014 2-1031, looked up) Probable ATP-dependent RNA …: GRESRHYRKRSASRGRSGSRSRSRSPSDKRSKRGDDRRSRSRDRDRRRERSRSRDKRRSRSRDRKRLRRSRSRERDRSRERRRSRSRDRRRSRSRSRGRRSRSSSPGNKSKKTENRSRSKEKTDGGESSKEKKKDKDDKEDEKEKDAGNFDQNKLEEEMRKRKERVEKWREEQRKKAMENIGELKKEIEEMKQGKKWSLEDDDDDEDDPAEAEKEGNEMEGEELDPLDAYMEEVKEEVKKFNMRSVKGGGGNEKKSGPTVTKVVTVVTTKKAVVDSDKKKGELMENDQDAMEYSSEEEEVDLQTALTGYQTKQRKLLEPVDHGKIEYEPFRKNFYVEVPELAKMSQEEVNVFRLEMEGITVKGKGCPKPIKSWVQCGISMKILNSLKKHGYEKPTPIQTQAIPAIMSGRDLIGIAKTGSGKTIAFLLPMFRHIMDQRSLEEGEGPIAVIMTPTRELALQITKECKKFSKTLGLRVVCVYGGTGISEQIAELKRGAEIIVCTPGRMIDMLAANSGRVTNLRRVTYVVLDEADRMFDMGFEPQVMRIVDNVRPDRQTVMFSATFPRAMEALARRILSKPIEVQVGGRSVVCSDVEQQVIVIEEEKKFLKLLELLGHYQESGSVIIFVDKQEHADGLLKDLMRASYPCMSLHGGIDQYDRDSIINDFKNGTCKLLVATSVAARGLDVKHLILVVNYSCPNHYEDYVHRAGRTGRAGNKGYAYTFITEDQARYAGDIIKALELSGTAVPPDLEKLWSDFKDQQKAEGKIIKKSSGFSGKGFKFDETEQALANERKKLQKAALGLQDSDDEDAAVDIDEQIESMFNSKKRVKDMAAPGTSSVPAPTAGNAEKLEIAKRLALRINAQKNLGIESQDVMQQATNAILRGGTILAPTVSAKTIAEQLAEKINAKLNYVPLEKQEEERQDGGQNESFKRYEEELEINDFPQTARWKVTSKEALQRISEYSEAAITIRGTYFPPGKEPKEGERKIYLAIESANELAVQKAKAEITRLIKEELIRLQNSYQPTNKGRYKVL	9	7		
IARS2 (protein, UniProt Q9NSE4 49-1012, looked up) Isoleucine--tRNA ligase, …: SNHQPNSNSGRYRDTVLLPQTSFPMKLLGRQQPDTELEIQQKCGFSELYSWQRERKVKTEFCLHDGPPYANGDPHVGHALNKILKDIANRFHMMNGSKIHFVPGWDCHGLPIEIKVLSELGREAQNLSAMEIRKKARSFAKAAIEKQKSAFIRWGIMADWNNCYYTFDGKYEAKQLRTFYQMYDKGLVYRSYKPVFWSPSSRTALAEAELEYNPEHVSRSIYVKFPLLKPSPKLASLIDGSSPVSILVWTTQPWTIPANEAVCYMPESKYAVVKCSKSGDLYVLAADKVASVASTLETTFETISTLSGVDLENGTCSHPLIPDKASPLLPANHVTMAKGTGLVHTAPAHGMEDYGVASQHNLPMDCLVDEDGVFTDVAGPELQNKAVLEEGTDVVIKMLQTAKNLLKEEKLVHSYPYDWRTKKPVVIRASKQWFINITDIKTAAKELLKKVKFIPGSALNGMVEMMDRRPYWCISRQRVWGVPIPVFHHKTKDEYLINSQTTEHIVKLVEQHGSDIWWTLPPEQLLPKEVLSEVGGPDALEYVPGQDILDIWFDSGTSWSYVLPGPDQRADLYLEGKDQLGGWFQSSLLTSVAARKRAPYKTVIVHGFTLGEKGEKMSKSLGNVIHPDVVVNGGQDQSKEPPYGADVLRWWVADSNVFTEVAIGPSVLNAARDDISKLRNTLRFLLGNVADFNPETDSIPVNDMYVIDQYMLHLLQDLANKITELYKQYDFGKVVRLLRTFYTRELSNFYFSIIKDRLYCEKENDPKRRSCQTALVEILDVIVRSFAPILPHLAEEVFQHIPYIKEPKSVFRTGWISTSSIWKKPGLEEAVESACAMRDSFLGSIPGKNAAEYKVITVIEPGLLFEIIEMLQSEETSSTSQLNELMMASESTLLAQEPREMTADVIELKGKFLINLEGGDIREESSYKVIVMPTTKEKCPRCWKYTAESSDTLCPRCAEVVSGK	8	8		
AGK (protein, UniProt Q53H12 1-422, looked up) Acylglycerol kinase, …: MTVFFKTLRNHWKKTTAGLCLLTWGGHWLYGKHCDNLLRRAACQEAQVFGNQLIPPNAQVKKATVFLNPAACKGKARTLFEKNAAPILHLSGMDVTIVKTDYEGQAKKLLELMENTDVIIVAGGDGTLQEVVTGVLRRTDEATFSKIPIGFIPLGETSSLSHTLFAESGNKVQHITDATLAIVKGETVPLDVLQIKGEKEQPVFAMTGLRWGSFRDAGVKVSKYWYLGPLKIKAAHFFSTLKEWPQTHQASISYTGPTERPPNEPEETPVQRPSLYRRILRRLASYWAQPQDALSQEVSPEVWKDVQLSTIELSITTRNNQLDPTSKEDFLNICIEPDTISKGDFITIGSRKVRNPKLHVEGTECLQASQCTLLIPEGAGGSFSIDSEEYEAMPVEVKLLPRKLQFFCDPRKREQMLTSPTQ	7	7	1	1
KRT1 (protein, UniProt P04264 2-644, looked up) Keratin, type II cytoskeletal …: SRQFSSRSGYRSGGGFSSGSAGIINYQRRTTSSSTRRSGGGGGRFSSCGGGGGSFGAGGGFGSRSLVNLGGSKSISISVARGGGRGSGFGGGYGGGGFGGGGFGGGGFGGGGIGGGGFGGFGSGGGGFGGGGFGGGGYGGGYGPVCPPGGIQEVTINQSLLQPLNVEIDPEIQKVKSREREQIKSLNNQFASFIDKVRFLEQQNQVLQTKWELLQQVDTSTRTHNLEPYFESFINNLRRRVDQLKSDQSRLDSELKNMQDMVEDYRNKYEDEINKRTNAENEFVTIKKDVDGAYMTKVDLQAKLDNLQQEIDFLTALYQAELSQMQTQISETNVILSMDNNRSLDLDSIIAEVKAQYEDIAQKSKAEAESLYQSKYEELQITAGRHGDSVRNSKIEISELNRVIQRLRSEIDNVKKQISNLQQSISDAEQRGENALKDAKNKLNDLEDALQQAKEDLARLLRDYQELMNTKLALDLEIATYRTLLEGEESRMSGECAPNVSVSVSTSHTTISGGGSRGGGGGGYGSGGSSYGSGGGSYGSGGGGGGGRGSYGSGGSSYGSGGGSYGSGGGGGGHGSYGSGSSSGGYRGGSGGGGGGSSGGRGSGGGSSGGSIGGRGSSSGGVKSSGGSSSVKFVSTTYSGVTR	48	35		
CMAS (protein, UniProt Q8NFW8 1-434, looked up) N-acylneuraminate …: MDSVEKGAATSVSNPRGRPSRGRPPKLQRNSRGGQGRGVEKPPHLAALILARGGSKGIPLKNIKHLAGVPLIGWVLRAALDSGAFQSVWVSTDHDEIENVAKQFGAQVHRRSSEVSKDSSTSLDAIIEFLNYHNEVDIVGNIQATSPCLHPTDLQKVAEMIREEGYDSVFSVVRRHQFRWSEIQKGVREVTEPLNLNPAKRPRRQDWDGELYENGSFYFAKRHLIEMGYLQGGKMAYYEMRAEHSVDIDVDIDWPIAEQRVLRYGYFGKEKLKEIKLLVCNIDGCLTNGHIYVSGDQKEIISYDVKDAIGISLLKKSGIEVRLISERACSKQTLSSLKLDCKMEVSVSDKLAVVDEWRKEMGLCWKEVAYLGNEVSDEECLKRVGLSGAPADACSTAQKAVGYICKCNGGRGAIREFAEHICLLMEKVNNSCQK	8	7		
HSD17B12 (protein, UniProt Q53GQ0 1-312, looked up) Very-long-chain 3-oxoacyl-CoA …: MESALPAAGFLYWVGAGTVAYLALRISYSLFTALRVWGVGNEAGVGPGLGEWAVVTGSTDGIGKSYAEELAKHGMKVVLISRSKDKLDQVSSEIKEKFKVETRTIAVDFASEDIYDKIKTGLAGLEIGILVNNVGMSYEYPEYFLDVPDLDNVIKKMININILSVCKMTQLVLPGMVERSKGAILNISSGSGMLPVPLLTIYSATKTFVDFFSQCLHEEYRSKGVFVQSVLPYFVATKLAKIRKPTLDKPSPETFVKSAIKTVGLQSRTNGYLIHALMGSIISNLPSWIYLKIVMNMNKSTRAHYLKKTKKN	8	7		
ATP5O (protein, UniProt P48047 24-213, looked up) ATP synthase peripheral stalk …: FAKLVRPPVQVYGIEGRYATALYSAASKQNKLEQVEKELLRVAQILKEPKVAASVLNPYVKRSIKVKSLNDITAKERFSPLTTNLINLLAENGRLSNTQGVVSAFSTMMSVHRGEVPCTVTSASPLEEATLSELKTVLKSFLSQGQVLKLEAKTDPSILGGMIVRIGEKYVDMSVKTKIQKLGRAMREIV	7	7		
